Test results: PubChem BioAssay AID2685 (National Center for Advancing Translational Sciences (NCATS), 2010)
Some of the results follow. Shown are side measurements of this screen, not its main read-out; they come without a call. The list favours compounds with an active or inconclusive main result. Potencies come from curve fits of mixed quality, noted in brackets.

Assay: qHTS Assay for Lipid Storage Modulators in Drosophila S3 Cells;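 on cell number change: cells counted by Cell Tracker Red CMTPX staining in the red channel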
Conditions: BODIPY lipid droplet fluorescence, 18-24 h; for cell number change: measured here: cell count max response, cells fed with added oleic acid
Method in brief: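 Drosophila S3 cells got compounds at several concentrations plus oleic acid (400 uM solution). Laser-scanning cytometry with 488 nm excitation read lipid droplets at 500-530 nm and cells at 575-640 nm. Percent activity was relative to 20 uM Triacsin C.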

[1] = measured here: lipid fluorescence (Fed channel) AC50, cells fed with added oleic acid
[2] = measured here: cell number channel AC50, cells fed with added oleic acid

Structure (SMILES) | cell number change | AC50 [1] | AC50 [2]
O=[N+]([O-])c1ccc2c(c1)nc1n2CCN(CC2CCCO2)C1 (stereo not given) | 12% | 29.1 µM [falling, partial curve] | –
CCCCCCCCCC[n+]1cccc2c3ccccc3ccc21 | -84.1% | 5.17 µM [falling, partial curve] | 9.2 µM [falling, partial curve]
Cc1ccc(CCNC(=O)C2CCN(S(=O)(=O)c3cccc4cccnc34)CC2)cc1 | – | 5.8 µM [rising, single point] | –
C/C(=C/c1ccccc1)C(=O)N1CCN(c2ccccc2)CC1 | 9.34% | 20.6 µM [rising, partial curve] | –
CC(NS(=O)(=O)c1ccccc1)C(N)=O (stereo not given) | -22.4% | 4.61 µM [falling, single point] | –
CCOC(=O)C1CCCN(C(=O)c2cc(-c3ccc(C)cc3)on2)C1 (stereo not given) | -0.647% | 29.1 µM [falling, single point] | –
O=C(c1cccc2ccccc12)N1CCC(N2CCN(c3ccccc3)CC2)CC1 | -0.594% | 2.06 µM [falling, single point] | 1.84 µM [falling, partial curve, poor fit]
COc1ccc(-n2nc(C(=O)NCC(=O)N3CCN(Cc4ccccc4)CC3)c3ccccc3c2=O)cc1OC | 24.6% | 6.51 µM [rising, single point] | –
CC1CCc2c(sc(NC(=O)C3CCCO3)c2C#N)C1 (stereo not given) | 21.6% | – | 0.461 µM [rising, full curve, poor fit]
CC(=O)N1CCN(C(=O)Cn2c(=O)oc3ccccc32)CC1 | 3.94% | 29.1 µM [falling, single point] | –
COc1ccc(OC)c(C(C)NC(=O)C23CC4CC(CC(C4)C2)C3)c1 (stereo not given) | -17.5% | 29.1 µM [falling, single point] | –
CC(C)C(c1nnnn1Cc1ccco1)N1CCN(c2cccc(Cl)c2)CC1 (stereo not given) | -13.1% | – | –
COc1ccc2c(c1)CCN1C2CCN2C(=O)CCC21 (stereo not given) | 1.48% | 0.82 µM [falling, single point] | –
O=C(CCc1nnc2ccc(N3CCC4(CC3)OCCO4)nn12)N1CCCCC1 | 9.48% | – | 0.00461 µM [rising, full curve, poor fit]
Cc1ccc(NC(=O)CN(C)C(=O)c2cc(C)on2)cc1 | -1.23% | 29.1 µM [falling, single point] | –
O=C(CNC(=O)c1ccccc1)N/N=C/c1cc(Br)ccc1O | -26.7% | 2.06 µM [falling, partial curve, poor fit] | 0.731 µM [falling, full curve, poor fit]
Cc1ccc(C(=O)COC(=O)CCS(=O)(=O)c2ccccc2)cc1[N+](=O)[O-] | 14.6% | 0.259 µM [rising, full curve] | –
CCOC(=O)C1(Nc2nccs2)Sc2ccccc2NC1=O (stereo not given) | -8.66% | 0.0731 µM [falling, full curve, poor fit] | –
Cc1ccc(C(=O)CCC(=O)OC(C)C(=O)NC2CCCCC2C)cc1 (stereo not given) | -7.92% | – | 0.082 µM [falling, full curve, poor fit]
CCn1ncc(C2=NOC(C(=O)NCc3ccc(OC)cc3)C2)c1C (stereo not given) | 1.8% | 6.51 µM [falling, single point] | 6.51 µM [falling, single point]

As entered above:
CCOC(=O)C1(Nc2nccs2)Sc2ccccc2NC1=O (stereo not given) – cell number change: -8.66%
CC(NS(=O)(=O)c1ccccc1)C(N)=O (stereo not given) – AC50 [1]: 4.61 µM [falling, single point]
CCOC(=O)C1CCCN(C(=O)c2cc(-c3ccc(C)cc3)on2)C1 (stereo not given) – cell number change: -0.647%
CC1CCc2c(sc(NC(=O)C3CCCO3)c2C#N)C1 (stereo not given) – AC50 [2]: 0.461 µM [rising, full curve, poor fit]
CCCCCCCCCC[n+]1cccc2c3ccccc3ccc21 – AC50 [2]: 9.2 µM [falling, partial curve]

Continuation.

Structure (SMILES) | cell number change | AC50 [1] | AC50 [2]
CCOc1cc(/C=C2\C(=N)N3N=C(C)SC3=NC2=O)ccc1OCCOc1cccc(OC)c1 | -3.52% | – | –
N/C(Cc1ccc(Cl)cc1Cl)=N\OC(=O)c1ccccc1 | -18.6% | 18.4 µM [falling, single point] | –
Cc1ccc(C(=O)N/C(=C\c2ccc(-c3ccccc3[N+](=O)[O-])o2)C(=O)NCCCN2CCOCC2)cc1 | -1.14% | – | –
COc1ccc([C@@H]2[C@@H]3C(=O)N(C(C)(C)C)C(=O)[C@@H]3[C@]3(C)C(=O)N(c4cccc(C)c4)C(=O)N23)cc1 | 16.2% | – | –
NS(=O)(=O)c1ccc(CNS(=O)(=O)Cc2ccc(Cl)cc2)cc1 | -29.6% | 4.61 µM [falling, single point] | –
Nc1nc(C(F)(F)F)cc(=O)n1N | -94.9% | 29.1 µM [falling, partial curve, poor fit] | 25.9 µM [falling, partial curve, poor fit]
COC(=O)CSC1=C(C#N)C(c2cccc(F)c2)CC(=O)N1 (stereo not given) | -6.67% | – | –
COc1cc(OC)cc(C(=O)N[C@H](C(=O)OCC(=O)Nc2ccc(F)c(F)c2)C(C)C)c1 | 41.6% | 25.9 µM [rising, partial curve] | 6.51 µM [rising, partial curve, poor fit]
Cn1c(=O)n(CCCOc2ccc(Cl)cc2)c2ccccc21 | – | 0.58 µM [falling, single point] | –
O=C1NCCCc2c1no[n+]2[O-] | -50.8% | 29.1 µM [falling, single point] | 13 µM [falling, partial curve, poor fit]
CCc1nnc(NS(=O)(=O)c2ccc(NC(=S)NC(=O)/C=C/c3ccc(C(C)C)cc3)cc2)s1 | -26.4% | – | –
CCCCCCn1c(SCC(C)C)nc2c1c(=O)[nH]c(=O)n2C | 36% | 20.6 µM [rising, single point] | 29.1 µM [rising, single point]
CCc1cc(/C(Cc2cscn2)=N\O)c(O)cc1O | -15.5% | – | 7.31 µM [falling, single point]
CC(C)(C)C(=O)CSc1ncnc2sc3c(c12)CCC3 | – | 29.1 µM [rising, single point] | –
O=C(c1ccncc1)N1CCN(S(=O)(=O)c2cccc(C(F)(F)F)c2)CC1 | 13.3% | – | –
O=C(O)[C@@H]1CCCN1C(=O)c1ccco1 | -34.3% | 1.16 µM [falling, full curve] | 0.0231 µM [falling, full curve, poor fit]
Cc1nnn(C23CC4CC(CC(CC(=O)Nc5ccc(C)c(C)c5)(C4)C2)C3)n1 | -8.07% | 16.4 µM [falling, single point] | –
Cc1cc([N+](=O)[O-])nn1CC(=O)Nc1nccs1 | -52.9% | 29.1 µM [falling, single point] | 1.46 µM [falling, partial curve]
COc1ccc(N2CCN(C(=O)COC(=O)c3oc4ccccc4c3C)CC2)cc1 | -8.17% | – | –
CCC1(CC)NC(=O)N(CC(=O)OCC(=O)Nc2ccccc2[N+](=O)[O-])C1=O | -31.9% | 13 µM [falling, partial curve, poor fit] | 6.51 µM [falling, partial curve]

Structure (SMILES) | cell number change | AC50 [1] | AC50 [2]
O=C(NC(=S)Nc1ccccc1O)c1ccc(-c2ccc(Cl)cc2)o1 | -65.3% | 29.1 µM [falling, single point] | 18.4 µM [falling, single point]
Cc1ccc(N=c2c([N+](=O)[O-])nn(-c3ccc4c(c3)OCCO4)n2O)c(Cl)c1 | -26.5% | – | 0.731 µM [rising, partial curve, poor fit]
Cc1ccc(S(=O)(=O)N2CCCCC2CCNC(=O)C(=O)NCc2ccco2)cc1 (stereo not given) | – | 0.103 µM [rising, full curve, poor fit] | 0.092 µM [rising, full curve, poor fit]
C=CCn1c(SCC(=O)OCC)nc2cc(C(=O)NCc3ccco3)ccc2c1=O | -1.3% | 4.61 µM [rising, single point] | 2.91 µM [rising, single point]
CCOC(=O)C1CCCN(C(=O)CSc2ccc(NC(C)=O)cc2)C1 (stereo not given) | 5.13% | – | –
O=C(COC(=O)c1cccc([N+](=O)[O-])c1)NCC1CCCO1 (stereo not given) | 0.593% | – | –
Cc1ccc2cccnc2c1NC(=S)NC(=O)c1ccccc1 | – | 2.06 µM [rising, partial curve] | 2.31 µM [rising, partial curve]
O=C(Nc1cccc(Cl)c1)C1CCCN(S(=O)(=O)c2cnc[nH]2)C1 (stereo not given) | -4.98% | – | –
O=C(N/N=C/c1ccc(OCC(=O)N2CCOCC2)cc1)c1ccccc1Cl | -9.55% | – | –
CC1CCCCC1NC(=O)c1ccc2c(c1)OCCO2 (stereo not given) | -12.6% | 0.517 µM [falling, full curve, poor fit] | –
CCc1n[nH]c(=S)n1/N=C/c1c(C)nn(-c2ccccc2)c1Cl | -15.2% | 13 µM [falling, partial curve, poor fit] | –
CCOC(=O)c1ccc(Oc2coc3cc(O)ccc3c2=O)cc1 | – | – | 0.651 µM [rising, single point]
COc1ccc(S(=O)(=O)NCc2ccncc2)cc1NC(=O)c1ccccc1C | -12.9% | – | –
C#CCSC1=C(C#N)C(c2cccs2)C(C(=O)OCC)=C(C)N1 (stereo not given) | -1.12% | – | –
COc1ccc(-c2nc3ccccn3c2C=O)cc1 | -11.3% | – | –
CCOC(=O)CC1(NC(=O)c2cc(COc3cncc(Cl)c3)on2)CCCCC1 | -37.5% | 32.6 µM [falling, partial curve] | 29.1 µM [falling, single point]
Cc1ccc(N2C(=O)c3ccccc3NC2C(C)Cc2ccc3c(c2)OCO3)cc1 (stereo not given) | -10% | 2.91 µM [rising, partial curve] | –
CC1(C)CC(=O)C(C=NCCN2CCN(C(=O)CC3CCCC3)CC2)=C(O)C1 | 6% | 29.1 µM [falling, single point] | –
CC1CCCC(C)N1CC(O)COc1c(F)cc(Br)cc1F (stereo not given) | -105% | 29.1 µM [falling, partial curve] | –
Cc1sc2ncn(CC(=O)NCCCOC(C)C)c(=O)c2c1S(=O)(=O)N1CCN(c2ncccn2)CC1 | -12.2% | – | 6.51 µM [falling, single point]
